This is one part of the list.
Columns and labels:
Assay in all cases: log2 fold change, soluble protein after heating vs DMSO (PISA); higher = thermal stabilisation; K562 lysate, 10 uM; active = over 0.2 and 3.5 SD of the protein, either way, in both replicates (recomputed)
[1] = compound: CC[C@@H]1C(=O)N(C)c2cnc(Nc3ccc(C(=O)NC4CCN(C)CC4)cc3OC)nc2N1C1CCCC1
Outline: (§1)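 Thermal stability, expressed as log-two fold change relative to solvent controls, is given from duplicates. Crude K562 extract in PBS pH 7.4 with 1 mM MgCl2, at 1 mg/mL protein, was treated with 10 μM compound for 30 min and heated in aliquots for 3 min across 48°C-58°C. After pooling, adjustment to 0.5% NP-40 at 4°C and centrifugation at 21,000xg for 90 min, supernatant protein was measured by TMTpro 16plex LC-MS/MS with channel sums equalised.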

Amino acid sequences for entries named in this document (tags omitted). A change or cut given only in a name is not applied to a line headed by its entry.
UniProt Q9BQT9: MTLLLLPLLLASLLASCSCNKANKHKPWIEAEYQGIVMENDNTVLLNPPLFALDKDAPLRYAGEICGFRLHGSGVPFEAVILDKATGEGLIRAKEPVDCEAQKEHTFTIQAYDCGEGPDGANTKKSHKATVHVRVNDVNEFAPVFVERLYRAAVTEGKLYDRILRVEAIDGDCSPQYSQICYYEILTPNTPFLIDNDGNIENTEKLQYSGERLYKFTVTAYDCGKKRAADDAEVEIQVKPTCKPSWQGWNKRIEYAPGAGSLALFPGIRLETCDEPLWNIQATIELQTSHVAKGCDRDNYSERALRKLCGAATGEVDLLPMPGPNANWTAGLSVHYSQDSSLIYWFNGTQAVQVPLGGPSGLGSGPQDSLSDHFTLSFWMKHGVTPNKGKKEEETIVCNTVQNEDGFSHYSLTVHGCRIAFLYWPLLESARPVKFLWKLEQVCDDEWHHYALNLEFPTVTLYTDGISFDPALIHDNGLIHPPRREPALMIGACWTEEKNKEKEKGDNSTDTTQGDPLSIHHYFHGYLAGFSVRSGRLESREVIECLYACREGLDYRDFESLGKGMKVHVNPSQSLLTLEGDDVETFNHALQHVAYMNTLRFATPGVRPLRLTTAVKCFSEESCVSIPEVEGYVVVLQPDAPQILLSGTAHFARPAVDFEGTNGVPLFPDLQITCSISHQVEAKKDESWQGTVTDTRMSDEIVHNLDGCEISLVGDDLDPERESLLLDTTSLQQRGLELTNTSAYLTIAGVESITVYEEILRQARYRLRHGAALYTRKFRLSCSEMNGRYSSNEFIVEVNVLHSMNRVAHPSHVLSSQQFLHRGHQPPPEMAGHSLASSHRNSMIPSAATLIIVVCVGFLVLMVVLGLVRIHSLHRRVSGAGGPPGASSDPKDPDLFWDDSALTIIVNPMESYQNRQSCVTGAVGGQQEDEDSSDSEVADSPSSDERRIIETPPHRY
UniProt P49759: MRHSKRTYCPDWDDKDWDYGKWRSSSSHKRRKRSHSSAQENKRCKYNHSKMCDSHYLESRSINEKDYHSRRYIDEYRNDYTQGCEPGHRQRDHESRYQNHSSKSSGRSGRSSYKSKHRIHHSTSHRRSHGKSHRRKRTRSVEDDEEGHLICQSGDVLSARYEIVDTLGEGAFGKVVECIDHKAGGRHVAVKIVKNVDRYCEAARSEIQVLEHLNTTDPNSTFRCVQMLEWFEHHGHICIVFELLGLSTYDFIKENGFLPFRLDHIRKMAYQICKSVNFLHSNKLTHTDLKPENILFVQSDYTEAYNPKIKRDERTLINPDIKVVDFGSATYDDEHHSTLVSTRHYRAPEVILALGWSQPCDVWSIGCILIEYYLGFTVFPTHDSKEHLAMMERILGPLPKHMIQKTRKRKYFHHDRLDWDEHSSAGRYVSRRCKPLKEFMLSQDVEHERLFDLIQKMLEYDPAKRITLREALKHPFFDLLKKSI
UniProt Q8WUD6: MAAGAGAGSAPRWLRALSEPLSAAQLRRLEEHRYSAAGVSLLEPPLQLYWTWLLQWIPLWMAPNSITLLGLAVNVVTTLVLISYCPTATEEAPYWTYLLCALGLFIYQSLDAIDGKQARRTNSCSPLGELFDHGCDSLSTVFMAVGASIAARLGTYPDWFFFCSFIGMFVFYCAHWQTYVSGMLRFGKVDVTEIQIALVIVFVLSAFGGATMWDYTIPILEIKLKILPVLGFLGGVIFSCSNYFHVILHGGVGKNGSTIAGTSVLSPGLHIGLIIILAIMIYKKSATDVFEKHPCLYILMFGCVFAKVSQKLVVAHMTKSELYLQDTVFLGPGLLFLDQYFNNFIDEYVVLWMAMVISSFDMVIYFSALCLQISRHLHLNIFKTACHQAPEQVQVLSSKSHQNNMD
UniProt Q9BSY4: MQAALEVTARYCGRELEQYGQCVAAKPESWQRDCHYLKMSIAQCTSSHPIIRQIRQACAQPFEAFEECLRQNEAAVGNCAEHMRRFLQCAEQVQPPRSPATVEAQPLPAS
UniProt Q9UBR5: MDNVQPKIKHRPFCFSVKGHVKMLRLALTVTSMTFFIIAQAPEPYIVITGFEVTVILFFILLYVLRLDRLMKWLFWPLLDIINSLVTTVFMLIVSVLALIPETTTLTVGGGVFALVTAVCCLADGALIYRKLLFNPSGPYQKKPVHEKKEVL
UniProt Q86X52: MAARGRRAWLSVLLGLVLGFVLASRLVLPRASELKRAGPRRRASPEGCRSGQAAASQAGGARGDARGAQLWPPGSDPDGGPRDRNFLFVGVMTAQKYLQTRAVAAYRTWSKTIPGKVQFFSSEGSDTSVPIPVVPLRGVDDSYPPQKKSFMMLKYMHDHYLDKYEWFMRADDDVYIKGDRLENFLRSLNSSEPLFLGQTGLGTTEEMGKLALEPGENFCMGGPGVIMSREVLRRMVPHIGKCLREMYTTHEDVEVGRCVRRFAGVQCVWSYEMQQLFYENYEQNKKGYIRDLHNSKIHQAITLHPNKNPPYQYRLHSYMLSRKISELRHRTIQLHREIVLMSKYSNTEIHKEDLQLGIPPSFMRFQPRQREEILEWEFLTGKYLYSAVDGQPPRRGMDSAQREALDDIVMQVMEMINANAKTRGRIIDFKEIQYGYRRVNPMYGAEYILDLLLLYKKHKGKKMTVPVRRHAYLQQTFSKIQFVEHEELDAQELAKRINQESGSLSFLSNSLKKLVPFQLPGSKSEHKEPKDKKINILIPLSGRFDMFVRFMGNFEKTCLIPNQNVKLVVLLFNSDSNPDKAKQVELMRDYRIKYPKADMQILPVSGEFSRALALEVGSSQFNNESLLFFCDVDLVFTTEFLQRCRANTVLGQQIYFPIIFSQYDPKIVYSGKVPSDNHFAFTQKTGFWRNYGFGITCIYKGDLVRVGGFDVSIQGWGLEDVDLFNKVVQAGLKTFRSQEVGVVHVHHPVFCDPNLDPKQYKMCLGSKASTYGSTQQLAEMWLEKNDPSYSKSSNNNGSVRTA
UniProt Q9Y4C5: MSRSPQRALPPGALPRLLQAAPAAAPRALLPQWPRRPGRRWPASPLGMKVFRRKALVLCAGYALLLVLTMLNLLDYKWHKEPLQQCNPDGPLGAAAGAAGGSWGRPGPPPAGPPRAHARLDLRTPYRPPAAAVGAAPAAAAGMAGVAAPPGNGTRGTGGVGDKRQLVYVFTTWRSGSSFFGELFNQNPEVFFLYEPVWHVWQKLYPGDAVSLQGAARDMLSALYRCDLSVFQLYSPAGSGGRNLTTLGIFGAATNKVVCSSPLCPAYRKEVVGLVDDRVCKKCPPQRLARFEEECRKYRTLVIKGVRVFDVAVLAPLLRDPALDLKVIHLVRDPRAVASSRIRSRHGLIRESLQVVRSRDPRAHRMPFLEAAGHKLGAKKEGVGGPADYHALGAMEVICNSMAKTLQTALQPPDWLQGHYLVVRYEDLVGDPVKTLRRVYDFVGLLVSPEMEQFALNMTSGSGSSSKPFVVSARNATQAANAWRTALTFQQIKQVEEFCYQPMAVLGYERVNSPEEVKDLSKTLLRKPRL
UniProt P62633: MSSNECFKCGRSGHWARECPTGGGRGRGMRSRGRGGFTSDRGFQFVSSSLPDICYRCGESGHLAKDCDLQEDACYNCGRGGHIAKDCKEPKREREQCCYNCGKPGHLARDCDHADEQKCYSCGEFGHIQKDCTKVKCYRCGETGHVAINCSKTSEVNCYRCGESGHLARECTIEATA
UniProt Q9UBY8, whole entry, looked up: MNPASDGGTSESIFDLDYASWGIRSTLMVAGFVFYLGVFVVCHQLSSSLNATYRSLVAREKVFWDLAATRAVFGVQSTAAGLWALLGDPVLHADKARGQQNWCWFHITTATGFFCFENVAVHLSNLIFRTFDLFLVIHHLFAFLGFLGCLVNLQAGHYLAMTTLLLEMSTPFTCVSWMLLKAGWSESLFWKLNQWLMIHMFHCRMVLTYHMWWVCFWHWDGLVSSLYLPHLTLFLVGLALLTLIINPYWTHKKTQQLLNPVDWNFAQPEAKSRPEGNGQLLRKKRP
UniProt P49760, whole entry, looked up: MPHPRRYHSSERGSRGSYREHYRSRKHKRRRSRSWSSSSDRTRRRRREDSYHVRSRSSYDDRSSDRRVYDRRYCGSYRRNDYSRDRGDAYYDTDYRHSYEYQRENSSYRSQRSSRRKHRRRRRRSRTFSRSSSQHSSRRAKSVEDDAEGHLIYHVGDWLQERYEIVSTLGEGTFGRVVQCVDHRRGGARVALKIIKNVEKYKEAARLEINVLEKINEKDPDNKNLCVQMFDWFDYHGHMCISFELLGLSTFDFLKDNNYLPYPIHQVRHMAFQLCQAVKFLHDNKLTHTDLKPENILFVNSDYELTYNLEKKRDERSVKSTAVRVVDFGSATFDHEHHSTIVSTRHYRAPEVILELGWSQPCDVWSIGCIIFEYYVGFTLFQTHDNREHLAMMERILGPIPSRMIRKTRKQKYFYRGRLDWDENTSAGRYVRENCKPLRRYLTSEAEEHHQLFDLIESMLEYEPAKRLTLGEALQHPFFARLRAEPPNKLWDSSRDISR
UniProt Q8NCH0: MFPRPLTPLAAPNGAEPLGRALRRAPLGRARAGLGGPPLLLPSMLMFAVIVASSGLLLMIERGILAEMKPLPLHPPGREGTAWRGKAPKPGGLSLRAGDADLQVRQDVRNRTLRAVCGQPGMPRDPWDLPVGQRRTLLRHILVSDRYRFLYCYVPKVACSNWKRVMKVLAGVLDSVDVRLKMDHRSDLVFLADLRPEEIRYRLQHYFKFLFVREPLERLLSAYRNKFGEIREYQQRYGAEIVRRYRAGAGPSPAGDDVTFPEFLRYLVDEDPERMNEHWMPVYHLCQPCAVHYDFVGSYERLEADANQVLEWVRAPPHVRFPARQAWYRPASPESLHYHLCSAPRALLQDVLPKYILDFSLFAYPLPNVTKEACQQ
UniProt Q99967: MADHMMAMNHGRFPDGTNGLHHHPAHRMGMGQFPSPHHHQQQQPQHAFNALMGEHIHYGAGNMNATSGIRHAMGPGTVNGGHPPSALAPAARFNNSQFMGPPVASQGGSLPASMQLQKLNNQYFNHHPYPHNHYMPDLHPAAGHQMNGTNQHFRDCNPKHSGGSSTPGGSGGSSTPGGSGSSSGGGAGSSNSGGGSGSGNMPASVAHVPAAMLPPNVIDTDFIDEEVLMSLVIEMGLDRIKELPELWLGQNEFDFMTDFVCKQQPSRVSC
UniProt P51795: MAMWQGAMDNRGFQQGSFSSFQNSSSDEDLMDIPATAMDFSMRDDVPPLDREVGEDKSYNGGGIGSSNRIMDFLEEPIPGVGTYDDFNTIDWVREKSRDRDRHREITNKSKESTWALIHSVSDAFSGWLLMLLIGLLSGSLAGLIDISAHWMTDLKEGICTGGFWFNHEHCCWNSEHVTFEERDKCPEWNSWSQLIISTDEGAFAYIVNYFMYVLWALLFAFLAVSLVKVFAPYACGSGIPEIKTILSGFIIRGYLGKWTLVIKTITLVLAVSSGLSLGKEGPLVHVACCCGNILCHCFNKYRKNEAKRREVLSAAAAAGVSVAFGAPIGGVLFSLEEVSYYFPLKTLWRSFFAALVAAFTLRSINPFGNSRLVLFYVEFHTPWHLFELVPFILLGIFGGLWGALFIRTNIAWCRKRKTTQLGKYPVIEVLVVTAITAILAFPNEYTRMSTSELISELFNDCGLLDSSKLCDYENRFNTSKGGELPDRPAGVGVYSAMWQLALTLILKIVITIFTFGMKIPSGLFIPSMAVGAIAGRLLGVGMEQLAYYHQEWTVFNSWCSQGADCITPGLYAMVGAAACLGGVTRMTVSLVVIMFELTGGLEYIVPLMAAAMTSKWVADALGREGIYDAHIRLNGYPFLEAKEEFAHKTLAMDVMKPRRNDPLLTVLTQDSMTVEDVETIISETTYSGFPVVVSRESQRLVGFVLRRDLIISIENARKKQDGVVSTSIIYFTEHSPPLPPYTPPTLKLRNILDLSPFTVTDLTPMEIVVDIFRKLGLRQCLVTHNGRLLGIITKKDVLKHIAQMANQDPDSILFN
UniProt Q9Y240: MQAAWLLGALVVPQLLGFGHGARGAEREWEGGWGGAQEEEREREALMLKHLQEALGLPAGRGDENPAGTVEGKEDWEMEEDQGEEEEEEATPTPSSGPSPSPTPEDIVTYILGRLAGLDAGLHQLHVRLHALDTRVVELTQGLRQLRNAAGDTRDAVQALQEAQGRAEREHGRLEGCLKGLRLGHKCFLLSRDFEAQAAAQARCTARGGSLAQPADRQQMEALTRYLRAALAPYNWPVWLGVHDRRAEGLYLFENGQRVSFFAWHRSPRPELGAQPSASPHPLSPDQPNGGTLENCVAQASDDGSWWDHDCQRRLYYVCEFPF

encorafenib = compound: COC(=O)N[C@@H](C)CNc1nccc(-c2cn(C(C)C)nc2-c2cc(Cl)cc(NS(C)(=O)=O)c2F)n1 [encorafenib]
Outline: as §1

[2] = compound: COC(=O)[C@H](CCSC)NC(=O)C1=C(C=C(C=C1)NC[C@H](CS)N)C2=CC=CC=C2
Outline: as §1

[3] = compound: CCCS(=O)(=O)Nc1ccc(F)c(C(=O)c2c[nH]c3ncc(Cl)cc23)c1F
Outline: as §1

barasertib = compound: CCN(CCCOc1ccc2c(Nc3cc(CC(=O)Nc4cccc(F)c4)[nH]n3)ncnc2c1)CCOP(=O)(O)O [barasertib]
Outline: as §1

volasertib = compound: CC[C@@H]1C(=O)N(C)c2cnc(Nc3ccc(C(=O)N[C@H]4CC[C@H](N5CCN(CC6CC6)CC5)CC4)cc3OC)nc2N1C(C)C [volasertib]
Outline: as §1

[4] = compound: CCn1c(C(=O)N(C2CC2)C2CC2)cc2c3c(ncn3C)c(Nc3cc(C)n(C)n3)nc21
Outline: as §1

saracatinib = compound: CN1CCN(CCOc2cc(OC3CCOCC3)c3c(Nc4c(Cl)ccc5c4OCO5)ncnc3c2)CC1 [saracatinib]
Outline: as §1

sotrastaurin = compound: CN1CCN(c2nc(C3=C(c4c[nH]c5ccccc45)C(=O)NC3=O)c3ccccc3n2)CC1 [sotrastaurin]
Outline: as §1

Tubastatin A = compound: CN1CCc2c(c3ccccc3n2Cc2ccc(C(=O)NO)cc2)C1 [Tubastatin A]
Outline: as §1

[5] = compound: CNC(=O)C1=CC=CC=C1NC2=NC(=NC=C2Cl)NC3=C(C=C(C=C3)N4CCOCC4)OC
Outline: as §1

[6] = compound: CNc1nc(-c2ccc3c(N)n[nH]c3c2)cc(N2C[C@@H](C(=O)NC3CCCCC3)CC[C@H]2C)n1
Outline: as §1

alisertib = compound: COc1cc(Nc2ncc3c(n2)-c2ccc(Cl)cc2C(c2c(F)cccc2OC)=NC3)ccc1C(=O)O [alisertib]
Outline: as §1

[7] = compound: COc1cc2nc(-c3cc(F)ccc3O)nc(N[C@@H]3CNC[C@H]3C(C)(C)O)c2cc1OC
Outline: as §1

gefitinib = compound: COc1cc2ncnc(Nc3ccc(F)c(Cl)c3)c2cc1OCCCN1CCOCC1 [gefitinib]
Outline: as §1

[8] = compound: CCn1cc(-c2ccnc3[nH]c(-c4cccc(CN(C)C)c4)cc23)c(-c2ccc(NC(=O)N(C)C)cc2)n1
Outline: as §1

[9] = compound: CN1CCC(CNc2ccc3ncc(-c4cccc(OC(F)(F)F)c4)n3n2)CC1
Outline: as §1

alvocidib = compound: CN1CC[C@H](c2c(O)cc(O)c3c(=O)cc(-c4ccccc4Cl)oc23)[C@H](O)C1 [alvocidib]
Outline: as §1

Measured: log2 fold change

CLDN7 (UniProt O95471)
inactive: [1] 0.036 | encorafenib 0.126 | [2] 0.057

CLEC16A isoform 2 (UniProt Q2KHT3)
inactive: [3] -0.076 | barasertib 0.095 | volasertib -0.127 | [4] 0.052 | saracatinib 0.063 | sotrastaurin 0.118 | Tubastatin A -0.035 | [5] -0.013 | [6] -0.067 | alisertib -0.098 | [7] 0.016 | gefitinib 0.188

CHTF18 (UniProt Q8WVB6)
inactive: [3] -0.046 | [1] 0.162 | volasertib -0.228 | [4] 0.051 | saracatinib -0.018 | sotrastaurin 0.041 | Tubastatin A -0.214 | [5] 0.126 | [6] 0 | encorafenib 0.097 | [2] 0.039 | alisertib -0.03 | [7] 0.089 | gefitinib 0.001

CHURC1-FNTB (UniProt B4DL54)
inactive: [1] -0.052 | [8] -0.346 | [9] 0.037 | sotrastaurin -0.223 | alvocidib -0.073 | encorafenib -0.002 | [2] -0.004

CLSTN3 isoform 2 (UniProt Q9BQT9)
inactive: [3] 0.029 | volasertib 0.014 | [4] -0.158 | saracatinib 0.045 | sotrastaurin 0.086 | Tubastatin A 0.183 | [5] -0.058 | [6] 0.127 | alisertib 0.023 | [7] -0.014 | gefitinib 0.078

CHMP2A (UniProt M0R1T5)
inactive: [8] -0.034 | [9] -0.198 | alvocidib 0.121

CHD4, A0A2R8Y521
inactive: [3] -0.315 | [1] -0.053 | volasertib 0.103 | [4] -0.342 | saracatinib 0.149 | Tubastatin A -0.117 | [6] 0.155 | encorafenib 0.046 | [2] -0.086 | alisertib 0.133 | [7] -0.454 | gefitinib 0.167

CKMT2 (UniProt D6RHV3)
inactive: [3] -0.042 | volasertib 0.058 | [7] 0.088

CLK1 isoform 3 (UniProt P49759)
inactive: barasertib 0.109 | [1] 0.424 | volasertib 0.065 | [4] -0.28 | [8] -0.224 | [9] -0.019 | Tubastatin A 0.168 | [5] -0.063 | encorafenib -0.143 | [2] 0.126 | alisertib -0.071 | [7] 0.237 | gefitinib -0.025

CLIP2 (UniProt Q9UDT6)
inactive: [3] 0.089 | barasertib -0.017 | [1] 0.013 | volasertib 0.039 | [8] -0.184 | [9] -0.225 | saracatinib -0.135 | sotrastaurin 0.039 | alvocidib 0.145 | [5] 0.124 | [6] -0.068 | encorafenib 0.061 | [2] -0.053 | [7] 0.068

CHMP4A (UniProt H0YIN6)
inactive: [3] 0.049 | barasertib -0.012 | volasertib 0.024 | [4] -0.495 | [8] -0.274 | [9] 0.158 | saracatinib 0.201 | sotrastaurin -0.088 | alvocidib -0.197 | Tubastatin A 0.193 | [6] 0.528 | [7] 0.104

CIC (UniProt I3L1Q4)
inactive: barasertib -0.169

CHPT1 (UniProt Q8WUD6)
inactive: barasertib 0.083 | [4] 0.249 | [8] 0.393 | [9] -0.085 | alvocidib 0.297 | Tubastatin A 0.013

CLN3 (UniProt Q13286)
inactive: [3] -0.071 | barasertib -0.05 | volasertib -0.053 | [4] -0.035 | saracatinib 0.054 | Tubastatin A -0.091 | [5] 0.084 | [6] -0.053 | alisertib -0.004 | [7] -0.1 | gefitinib 0.218

CLU isoform 2 (UniProt P10909)
inactive: [8] 0.261 | [9] -0.039 | alvocidib -0.008

CLSTN1 (UniProt O94985)
inactive: [3] -0.104 | [1] 0.158 | volasertib -0.023 | [4] 0.348 | [8] -0.51 | [9] 0.051 | sotrastaurin -0.002 | alvocidib 0.086 | Tubastatin A -0.018 | encorafenib -0.042 | [2] -0.026 | alisertib 0.122 | [7] 0.157 | gefitinib -0.057

CHPF (UniProt Q8IZ52)
inactive: barasertib 0.007 | [1] -0.047 | [4] 0.01 | [8] 0.061 | [9] 0.038 | saracatinib 0.169 | sotrastaurin -0.147 | alvocidib -0.008 | Tubastatin A 0.168 | [5] 0.075 | [6] -0.024 | encorafenib 0.02 | [2] 0.063

CHCHD5 (UniProt Q9BSY4)
inactive: [4] 0.176 | [8] 0 | [9] -0.124 | saracatinib 0.112 | sotrastaurin -0.019 | alvocidib 0.129 | Tubastatin A 0.014 | [5] 0.057 | [6] 0.08 | alisertib 0.046 | gefitinib -0.252

CKLF (UniProt Q9UBR5)
inactive: [3] -0.123 | volasertib -0.056 | [4] 0.161 | [8] 0.167 | [9] 0.034 | saracatinib 0.01 | sotrastaurin -0.268 | alvocidib -0.075 | Tubastatin A 0.225 | [6] -0.461 | [7] 0.018

CHSY1 (UniProt Q86X52)
inactive: [3] 0.002 | barasertib 0.015 | volasertib -0.215 | [4] 0.06 | [8] -0.315 | [9] -0.08 | saracatinib 0.02 | alvocidib -0.135 | Tubastatin A 0.043 | [5] 0.237 | [6] -0.008 | alisertib -0.1 | [7] 0.076 | gefitinib 0.023

CHST2 (UniProt Q9Y4C5)
inactive: [3] -0.029 | barasertib 0.122 | volasertib 0.097 | [8] -0.367 | [9] 0.078 | saracatinib 0.141 | sotrastaurin 0.089 | alvocidib -0.032 | [6] 0.089 | [7] -0.111

CMTR2 (UniProt Q8IYT2)
inactive: [3] 0.16 | volasertib 0.214 | [4] -0.188 | Tubastatin A 0.015 | alisertib 0.024 | [7] -0.101 | gefitinib 0.032

CNBP (UniProt P62633)
inactive: [3] 0.168 | barasertib -0.006 | volasertib 0.098 | [5] 0.044 | [7] -0.07

CLN8 (UniProt Q9UBY8)
inactive: [3] -0.195 | barasertib 0.221 | [1] -0.257 | volasertib -0.006 | [4] 0.034 | [8] -0.018 | [9] -0.011 | saracatinib 0.067 | sotrastaurin 0.044 | alvocidib -0.158 | Tubastatin A 0.005 | [5] 0.041 | [6] -0.022 | encorafenib 0.038 | [2] -0.056 | alisertib -0.043 | [7] -0.083 | gefitinib 0.16

CLK2 (UniProt P49760)
inactive: [3] 0.286 | volasertib -0.231 | saracatinib -0.054 | sotrastaurin 0.156 | [6] 0.061 | [7] -0.214

CHST14 (UniProt Q8NCH0)
inactive: [8] -0.022 | [9] -0.014 | saracatinib -0.078 | sotrastaurin 0.074 | alvocidib 0.082 | [6] 0.148 | alisertib 0.069 | gefitinib 0

CITED2 (UniProt Q99967)
inactive: saracatinib 0.131 | [5] 0.046 | [6] -0.149

Pulled one by one from above (2):
CLN8 (UniProt Q9UBY8)
inactive: [3] -0.195 | barasertib 0.221 | [1] -0.257 | volasertib -0.006 | [4] 0.034 | [8] -0.018 | [9] -0.011 | saracatinib 0.067 | sotrastaurin 0.044 | alvocidib -0.158 | Tubastatin A 0.005 | [5] 0.041 | [6] -0.022 | encorafenib 0.038 | [2] -0.056 | alisertib -0.043 | [7] -0.083 | gefitinib 0.16

CNBP (UniProt P62633)
inactive: [3] 0.168 | barasertib -0.006 | volasertib 0.098 | [5] 0.044 | [7] -0.07

Continued:

CLCN5 isoform 2 (UniProt P51795)
inactive: [3] -0.108 | volasertib 0.006 | [4] -0.094 | Tubastatin A 0.089 | [5] 0.034 | [7] 0.042

CLEC11A (UniProt Q9Y240)
inactive: [3] -0.033 | [1] -0.099 | volasertib 0.001 | sotrastaurin -0.098 | [5] 0.146 | encorafenib 0.085 | [2] 0.05 | [7] -0.029
